{"source": "PubChem BioAssay AID1508588 – Peter MacCallum Cancer Centre | 2020", "purpose": "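Which gene losses make BRAF-mutant melanoma cells more responsive to vemurafenib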 (primary screen)", "cells": "human WM266.4 melanoma cells (BRAF V600 mutant)", "reagents": "siRNA pool against human genes, 40 nM", "duration": "96 h from transfection to read-out", "treatment": "vemurafenib 300 nM (about IC25), added 48 h after transfection, for 48 h; comparison arm got DMSO vehicle only", "measurement": "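Cell gain (DAPI nuclei at end minus before drug, mean of two replicates) and medium lactate by absorbance per cell, both as ratio to non-targeting siRNA, also grouped into fold-change classes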", "direction": "cell gain with vemurafenib: higher = more cell gain than with non-targeting siRNA; lactate per cell with vemurafenib: higher = more lactate made per cell", "hit rule": "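Enhancement is called by pairing each knock-down's vehicle-arm and drug-arm fold-change classes for viability or glycolysis; which class combinations qualify is not given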", "calls": "active = enhances vemurafenib effect; inactive = no enhancement seen", "note": "Shown is one part, drawn at random, of about 18,000 reagents. Of all reagents, 790 (4.4%) are marked active. 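Calls rest on a combination of fold-change classes in drug and vehicle arms, not all shown here.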 Reagent sequences are not shown."}
{"Gene":"DHRS2","cell gain with vemurafenib":0.7,"lactate per cell with vemurafenib":0.54,"Outcome":"inactive"}
{"Gene":"MDGA2","cell gain with vemurafenib":0.49,"lactate per cell with vemurafenib":0.8,"Outcome":"inactive"}
{"Gene":"MGAT4B","cell gain with vemurafenib":0.42,"lactate per cell with vemurafenib":0.6,"Outcome":"inactive"}
{"Gene":"INHA","cell gain with vemurafenib":0.6,"lactate per cell with vemurafenib":1.16,"Outcome":"inactive"}
{"Gene":"ANGEL2","cell gain with vemurafenib":0.29,"lactate per cell with vemurafenib":1.9,"Outcome":"inactive"}
{"Gene":"TGM7","cell gain with vemurafenib":0.5,"lactate per cell with vemurafenib":0.58,"Outcome":"inactive"}
{"Gene":"ZNF208","cell gain with vemurafenib":0.78,"lactate per cell with vemurafenib":1.25,"Outcome":"inactive"}
{"Gene":"ATP13A1","cell gain with vemurafenib":0.75,"lactate per cell with vemurafenib":0.72,"Outcome":"inactive"}
{"Gene":"SAXO2","cell gain with vemurafenib":0.77,"lactate per cell with vemurafenib":1.09,"Outcome":"inactive"}
{"Gene":"NPPA","cell gain with vemurafenib":0.09,"lactate per cell with vemurafenib":1.71,"Outcome":"inactive"}
{"Gene":"DNAJC5","cell gain with vemurafenib":0.66,"lactate per cell with vemurafenib":1.02,"Outcome":"inactive"}
{"Gene":"TSPY2","cell gain with vemurafenib":0.12,"lactate per cell with vemurafenib":1.52,"Outcome":"inactive"}
{"Gene":"DEFB128","cell gain with vemurafenib":0.56,"lactate per cell with vemurafenib":1.23,"Outcome":"inactive"}
{"Gene":"MAML2","cell gain with vemurafenib":0.2,"lactate per cell with vemurafenib":1.24,"Outcome":"inactive"}
{"Gene":"BMP2K","cell gain with vemurafenib":0.41,"lactate per cell with vemurafenib":1.17,"Outcome":"inactive"}

Next part, starting with the last 4 of the part before.
{"Gene":"TSPY2","cell gain with vemurafenib":0.12,"lactate per cell with vemurafenib":1.52,"Outcome":"inactive"}
{"Gene":"DEFB128","cell gain with vemurafenib":0.56,"lactate per cell with vemurafenib":1.23,"Outcome":"inactive"}
{"Gene":"MAML2","cell gain with vemurafenib":0.2,"lactate per cell with vemurafenib":1.24,"Outcome":"inactive"}
{"Gene":"BMP2K","cell gain with vemurafenib":0.41,"lactate per cell with vemurafenib":1.17,"Outcome":"inactive"}
{"Gene":"DRC4","cell gain with vemurafenib":0.76,"lactate per cell with vemurafenib":1.4,"Outcome":"inactive"}
{"Gene":"NCLN","cell gain with vemurafenib":0.43,"lactate per cell with vemurafenib":1.27,"Outcome":"inactive"}
{"Gene":"C1orf141","cell gain with vemurafenib":0.73,"lactate per cell with vemurafenib":0.66,"Outcome":"inactive"}
{"Gene":"KATNAL2","cell gain with vemurafenib":1.17,"lactate per cell with vemurafenib":0.65,"Outcome":"inactive"}
{"Gene":"PRPF38B","cell gain with vemurafenib":0.5,"lactate per cell with vemurafenib":1.42,"Outcome":"inactive"}
{"Gene":"SYCP1","cell gain with vemurafenib":0.85,"lactate per cell with vemurafenib":0.29,"Outcome":"inactive"}
{"Gene":"NEUROD1","cell gain with vemurafenib":0.82,"lactate per cell with vemurafenib":1.5,"Outcome":"inactive"}
{"Gene":"VSIR","cell gain with vemurafenib":0.54,"lactate per cell with vemurafenib":1.88,"Outcome":"inactive"}
{"Gene":"RAMP3","cell gain with vemurafenib":0.73,"lactate per cell with vemurafenib":0.57,"Outcome":"inactive"}
{"Gene":"DEFB136","cell gain with vemurafenib":0.37,"lactate per cell with vemurafenib":0.62,"Outcome":"inactive"}
{"Gene":"PSKH1","cell gain with vemurafenib":0.4,"lactate per cell with vemurafenib":1.14,"Outcome":"inactive"}
{"Gene":"PIK3CD","cell gain with vemurafenib":0.61,"lactate per cell with vemurafenib":1.32,"Outcome":"inactive"}
{"Gene":"PARL","cell gain with vemurafenib":0.4,"lactate per cell with vemurafenib":0.29,"Outcome":"inactive"}
{"Gene":"UNC5CL","cell gain with vemurafenib":0.48,"lactate per cell with vemurafenib":0.71,"Outcome":"inactive"}
{"Gene":"RBM28","cell gain with vemurafenib":0.52,"lactate per cell with vemurafenib":0.9,"Outcome":"inactive"}
{"Gene":"POLR2E","cell gain with vemurafenib":0.26,"lactate per cell with vemurafenib":1.21,"Outcome":"inactive"}
{"Gene":"SSX5","cell gain with vemurafenib":-0.02,"lactate per cell with vemurafenib":1.85,"Outcome":"inactive"}
{"Gene":"MALL","cell gain with vemurafenib":0.62,"lactate per cell with vemurafenib":1.04,"Outcome":"inactive"}
{"Gene":"SANBR","cell gain with vemurafenib":0.92,"lactate per cell with vemurafenib":0.79,"Outcome":"inactive"}
{"Gene":"ADCY1","cell gain with vemurafenib":0.67,"lactate per cell with vemurafenib":0.71,"Outcome":"inactive"}
{"Gene":"HNRNPA1L2","cell gain with vemurafenib":0.38,"lactate per cell with vemurafenib":1.93,"Outcome":"inactive"}
{"Gene":"DEFB114","cell gain with vemurafenib":0.57,"lactate per cell with vemurafenib":2.39,"Outcome":"inactive"}
{"Gene":"TRIM6","cell gain with vemurafenib":0.3,"lactate per cell with vemurafenib":1.23,"Outcome":"inactive"}
{"Gene":"TNFRSF19","cell gain with vemurafenib":0.88,"lactate per cell with vemurafenib":0.78,"Outcome":"inactive"}
{"Gene":"H1-1","cell gain with vemurafenib":0.27,"lactate per cell with vemurafenib":0.6,"Outcome":"inactive"}
